# Some of the results follow. Small differences around the control level are noise.
# The chains behind the UniProt entries cited, without tags or fusion partners. Where a name states a change or a piece, a line headed by the entry shows the natural chain unless it says otherwise.
# UniProt Q9Z1P6, whole entry: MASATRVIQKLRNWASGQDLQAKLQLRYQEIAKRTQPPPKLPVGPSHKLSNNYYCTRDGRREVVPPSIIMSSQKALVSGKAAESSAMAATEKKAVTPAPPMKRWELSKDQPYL
# UniProt Q9Z224: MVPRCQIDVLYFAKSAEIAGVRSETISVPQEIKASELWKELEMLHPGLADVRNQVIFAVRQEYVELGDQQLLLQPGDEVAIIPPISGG
# Compound: CN[C@@H]1C[C@H]2O[C@@](C)([C@@H]1OC)n1c3ccccc3c3c4c(c5c6ccccc6n2c5c31)C(=O)NC4 [staurosporine]
# Test: log2 fold change of tryptic peptide abundance, ligand vs vehicle (limited proteolysis) (log2 ratio); higher = more trypsin-susceptible (destabilized)
# Conditions: ligand concentration: 20 uM; sample: mouse liver crude lysate; replicate design: treated separately
row,Target,log2 fold change
1,"UniProt Q9Z1Q5 (peptide sequence: NSNPALNDNLEK, peptide start residue: 120)",0.219
2,"UniProt Q9Z1P6 (peptide sequence: AAESSAMAATEKK, peptide start residue: 81)",0.0615
3,"UniProt Q9Z224 (peptide sequence: NQVIFAVR, peptide start residue: 53)",-0.149
